Some test systems named below: OR51L1 clone 1534; OR51Q1 clone 1190; OR51S1 clone 1699; OR51T1 clone 1326; OR51V1 clone 1700; OR51V1 clone 1701; OR52A1 S272P clone 1151; OR52A4 clone 1719; OR52A5 clone 1568.
Experiment in all cases: odorant receptor activation (CRE luciferase / Renilla) (fold of no-odor wells); higher = more activation
Details in all cases: 100 µM

For experiment [1], the system named is OR51M1 H91Q/L124F/I193T/P245H/F307L clone 1121.

Where “and” joins values, the source holds several entries; their conditions need not be identical. Equal values may be shown once. The list shows a part of the results. Each value is one well over the wells without odorant, computed here; the data are noisy.

As to `O=CCc1ccccc1` [phenyl acetaldehyde], the odorant receptor activation worked out at 4.51 in the experiment with OR51L1 clone 1534; 1.28 in [1]; 0.723 in the experiment with OR51Q1 clone 1190; 1.72 in the experiment on OR51S1 clone 1699; 0.959 with OR51T1 clone 1326; 1.92 in the experiment on OR51V1 clone 1700. Also, the odorant receptor activation came out at 1.83 with OR51V1 clone 1701, 1.18 with OR52A1 S272P clone 1151, 1.71 in the experiment with OR52A4 clone 1719 and 2.16 in the experiment on OR52A5 clone 1568.
For `CC1=CCC(C(C)(C)O)CC1` (configuration not stated) [terpineol], the odorant receptor activation is 0.819 in the experiment with OR51L1 clone 1534; 0.944 in [1]; 0.942 in the experiment with OR51Q1 clone 1190; 1.19 in the experiment on OR51S1 clone 1699; 0.959 in the experiment on OR51T1 clone 1326; 1.17 with OR51V1 clone 1700. Moreover, the odorant receptor activation in the experiment on OR51V1 clone 1701 stood at 0.67; in the experiment with OR52A1 S272P clone 1151, 1.07; with OR52A4 clone 1719 it was 1.29; with OR52A5 clone 1568 it was 0.994.
As to `CC/C=C\CCO` [cis-3-hexen-1-ol], the odorant receptor activation with OR51L1 clone 1534 was found to be 0.862; in experiment [1], 0.941; with OR51Q1 clone 1190, 0.869; in the experiment on OR51S1 clone 1699, 1.03; in the experiment on OR51T1 clone 1326, 0.835; with OR51V1 clone 1700, 1.11. The odorant receptor activation with OR51V1 clone 1701 amounted to 0.963; in the experiment with OR52A1 S272P clone 1151 it was 0.813; with OR52A4 clone 1719, 0.659; in the experiment on OR52A5 clone 1568, 1.24.
As for `CC12CCC(CC1)C(C)(C)O2` [cineole], the odorant receptor activation with OR51L1 clone 1534 is 0.752; in experiment [1], 0.865; in the experiment with OR51Q1 clone 1190 it was 0.816; in the experiment on OR51S1 clone 1699, 1.01; in the experiment with OR51T1 clone 1326, 0.925; in the experiment with OR51V1 clone 1700, 1.16. Moreover, the odorant receptor activation was 0.846 in the experiment with OR51V1 clone 1701, 0.65 with OR52A1 S272P clone 1151, 0.703 in the experiment with OR52A4 clone 1719 and 1.7 in the experiment on OR52A5 clone 1568.
Take `CCCCO` [1-butanol]: the odorant receptor activation stood at 0.924 in the experiment on OR51L1 clone 1534; 0.876 in [1]; 1.01 in the experiment with OR51Q1 clone 1190; 0.801 in the experiment on OR51S1 clone 1699; 0.881 with OR51T1 clone 1326; 0.947 in the experiment with OR51V1 clone 1700. The odorant receptor activation with OR51V1 clone 1701 was determined as 0.984; with OR52A1 S272P clone 1151, 1.02; in the experiment with OR52A4 clone 1719 it was 1.21; in the experiment with OR52A5 clone 1568 it was 0.855.
Take `CCCC(=O)O` [butyric acid]: the odorant receptor activation with OR51L1 clone 1534 was 0.826; in [1], 1.1; in the experiment on OR51Q1 clone 1190, 0.852; in the experiment on OR51S1 clone 1699 it was 1.32; with OR51T1 clone 1326 it was 0.832; in the experiment on OR51V1 clone 1700 it was 0.752. Further, the odorant receptor activation is 0.873 in the experiment on OR51V1 clone 1701, 0.927 in the experiment with OR52A1 S272P clone 1151, 0.635 in the experiment with OR52A4 clone 1719 and 1.06 with OR52A5 clone 1568.
`CCC1(O)C2(C)CCC(C2)C1(C)C` (configuration not stated) [2-ethylfenchol]: the odorant receptor activation in the experiment on OR51L1 clone 1534 amounted to 1.06; in experiment [1] it was 0.898; in the experiment with OR51Q1 clone 1190, 0.886; with OR51S1 clone 1699 it was 0.798; with OR51T1 clone 1326, 0.96; in the experiment on OR51V1 clone 1700 it was 0.94. The odorant receptor activation in the experiment on OR51V1 clone 1701 was 0.821; with OR52A1 S272P clone 1151, 0.913; in the experiment with OR52A4 clone 1719 it was 0.834; in the experiment on OR52A5 clone 1568 it was 0.772.
Regarding `CC(C)(O)CCCC1=CCC(C=O)CC1` (configuration not stated) [lyral], the odorant receptor activation in [1] is 1.13; with OR51S1 clone 1699, 1.17; in the experiment on OR51V1 clone 1700, 1.11; in the experiment on OR51V1 clone 1701 it was 0.938; with OR52A4 clone 1719 it was 1.18; in the experiment with OR52A5 clone 1568, 1.02.
Take `CC(=O)c1ccccc1` [acetophenone]: the odorant receptor activation in the experiment on OR51L1 clone 1534 was 0.934 and 0.617; in the experiment with OR51Q1 clone 1190, 1.01; with OR51T1 clone 1326, 2.17; in the experiment on OR52A1 S272P clone 1151, 1.13.
Consider `CC12CCC(C1)C(C)(C)C2=O` (configuration not stated) [fenchone], for which the odorant receptor activation in the experiment on OR51L1 clone 1534 was 1.12; in [1], 1.55; in the experiment on OR51Q1 clone 1190, 0.787; in the experiment with OR51S1 clone 1699, 0.813; with OR51T1 clone 1326 it was 0.997; with OR51V1 clone 1700 it was 0.944. The odorant receptor activation in the experiment on OR51V1 clone 1701 was 0.642; in the experiment with OR52A1 S272P clone 1151, 0.849; in the experiment on OR52A4 clone 1719, 0.912; in the experiment on OR52A5 clone 1568, 0.96.
On to `CC1COCc2cc3c(cc21)C(C)(C)C(C)C3(C)C` (configuration not stated) [galaxolide], for which the odorant receptor activation in the experiment on OR51L1 clone 1534 is 2.69 and 3.79; in experiment [1], 0.446 and 0.976; in the experiment with OR51Q1 clone 1190, 0.891; in the experiment on OR51T1 clone 1326, 0.806 and 1.51; in the experiment with OR52A1 S272P clone 1151 it was 0.868.
Regarding `CCCCCCC=O` [heptaldehyde], the odorant receptor activation in [1] is 1.45; in the experiment with OR51S1 clone 1699, 0.903; with OR51T1 clone 1326 it was 0.388 and 0.862 and 0.91; in the experiment with OR51V1 clone 1700, 0.798; with OR51V1 clone 1701 it was 0.87; with OR52A1 S272P clone 1151, 0.336 and 0.942. For the same compound, the odorant receptor activation with OR52A4 clone 1719 was determined as 0.979; in the experiment with OR52A5 clone 1568, 1.02.
Regarding `CC12C=CCC1C1CCC3=CC(=O)CCC3(C)C1CC2` (configuration not stated) [androstadienone], the odorant receptor activation was 0.816 and 1.19 in the experiment with OR51L1 clone 1534; 0.906 with OR51Q1 clone 1190; 1.11 and 0.925 with OR51T1 clone 1326; 0.943 with OR52A1 S272P clone 1151.
